Data taken from PubChem BioAssay AID624297 (National Center for Advancing Translational Sciences (NCATS), 2012).
In all, about 340,000 compounds went through this assay and about 6,200 (1.8%) were called active. Inconclusive results, whose numbers are uncertain, are shown with a selection of clear calls. Calls follow the shape of the dose curve; as a rule, active = well fitted activation curve with a large enough effect; inconclusive = small, poorly fitted or top-dose-only effect; inactive = no such curve, though single readings can be large or run the other way. Where the call is inconclusive, the potency comes from a doubtful curve fit.
Potency is read from the fitted curve at half-maximal effect.

Assay: A quantitative high throughput screen for small molecules that induce DNA re-replication in SW480 colon adenocarcinoma cells. Also: nearly all actives have a fitted effect of over 55% in size. As to re-replication activation: % of control where 0% means no effect.
Details: Hoechst DNA content imaging, 48 h; re-replication activation: at 46.1 µM (top of the series) unless noted
Procedure, shortened: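 250 cells/well; 23 nL cpd via pin tool; 48 hr, 37 C, 5% CO2; Hoechst 40 min; imager read of total nuclear intensity, ex 405/em 500-530 nm.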
For `COc1ccccc1NC(=O)C(C)OC(=O)Cn1cnc2c1c(=O)n(C)c(=O)n2C` (stereo unspecified), the “re-replication activation” value was inactive: -70.6%.
With `CN(Cc1ccccc1)c1ncnc2[nH]ncc12` the Potency was inconclusive: 0.731 µM [activator, partial curve, poor fit].
For `Cc1cc(NC(=O)CSc2c[nH]c3ccccc23)no1`, the Potency was inconclusive: 29.1 µM [activator, single point].
With `O=C(CN(c1cccc(C(F)(F)F)c1)S(=O)(=O)c1ccc(Cl)c([N+](=O)[O-])c1)NCc1ccccc1Cl` the Potency was inconclusive: 29.1 µM [activator, single point].
For `COCCNC(=O)CSC1=N/C(=C/c2ccc(Cl)c(Cl)c2)C(=O)N1c1ccccc1F`, the Potency was inconclusive: 29.1 µM [activator, single point].
With `CCN(CC)CCCN(C(=O)c1ccco1)c1nc(-c2ccc(C)cc2)cs1` the Potency was inconclusive: 29.1 µM [activator, single point].
In the case of `CC(C)c1cc(C(=O)Nc2sc3c(c2C#N)CCC3)no1`, the Potency is reported as inconclusive: 29.1 µM [activator, single point].
In the case of `O=C(c1ccco1)N1CCN(Cc2cc(=O)oc3cc(O)ccc23)CC1`, the Potency is reported as inconclusive: 18.4 µM [activator, partial curve, poor fit].
For `C[C@@H]1CC=C[C@H]2[C@H]1C(=O)N(Cc1ccccc1)[C@H]2c1ccoc1`, the Potency was inconclusive: 18.4 µM [activator, single point].
With `CN(C)C(=S)Nc1cccc(C(F)(F)F)c1` the “re-replication activation” value was inactive: -0.674%.
With `CC1(C)CC(=O)C(C(C#Cc2ccccc2)C2=C(O)CC(C)(C)CC2=O)=C(O)C1` the Potency was inconclusive: 29.1 µM [activator, single point].
With `CC1CCCC(C)N1C(=O)COc1ccc([N+](=O)[O-])cc1Cl` (stereo unspecified) the “re-replication activation” value was inactive: -14.4%.
For `COc1ccc(-n2c(O)c(C=Nc3ccccc3)c3ccccc3c2=O)cc1`, the Potency was inconclusive: 2.59 µM [activator, partial curve, poor fit].
For `N#Cc1ccc(CNC(=O)N2CCOCC2)cc1`, the “re-replication activation” value was inactive: -11.9%.
In the case of `O=C(NNC(=O)c1ccccc1O)c1ccc(NS(=O)(=O)c2ccc(F)c(F)c2)cc1`, the Potency is reported as inconclusive: 29.1 µM [activator, single point].
In the case of `COc1cc([N+](=O)[O-])ccc1NC(=O)CN(C)C`, the “re-replication activation” value is reported as inactive: 3.87%.
For `Nc1ncnc2c1ncn2C1CCCC(CO)O1` (stereo unspecified), the “re-replication activation” value was inactive: -4.81%.
For `O=C(CC1(O)C(=O)N(C/C=C/c2ccccc2)c2ccccc21)c1ccccn1` (stereo unspecified), the Potency was inconclusive: 22.4 µM [activator, single point].
In the case of `COCCNC(=S)NN=C1CCC(c2ccccc2)CC1` (stereo unspecified), the Potency is reported as inconclusive: 29.1 µM [activator, single point].
In the case of `CC(C)N(CCCNC(=O)Cn1c(=O)c2cccn2c2ccccc21)Cc1ccccc1`, the Potency is reported as inconclusive: 2.91 µM [activator, partial curve, poor fit].
With `O=C(c1ccc(-n2cncn2)c([N+](=O)[O-])c1)N1CCN(S(=O)(=O)c2ccc(F)c(F)c2)CC1` the Potency was inconclusive: 18.4 µM [activator, single point].
In the case of `Cc1cccc2c(C(=O)N3CCN(C(=O)c4ccco4)CC3)cc(-c3cccc(Br)c3)nc12`, the Potency is reported as inconclusive: 29.1 µM [activator, single point].
In the case of `CC(Sc1nnnn1C)C(=O)NC1CCCC1` (stereo unspecified), the “re-replication activation” value is reported as inactive: -0.492%.
With `CCCc1cc(C(=O)N2CCN(c3ccc(C(F)(F)F)cn3)CC2)sc1C` the Potency was inconclusive: 29.1 µM [activator, single point].
With `CC(C)c1ccc(C(=O)Nc2ccc(CN3CCOCC3)cc2)cc1` the Potency was inconclusive: 18.4 µM [activator, single point].
For `COc1cccc(NC(=O)CN(C)C(=O)c2cc3c(s2)CCC3)c1`, the “re-replication activation” value was inactive: -0.562%.
In the case of `CCN(CC)CCCNC(=O)CC1Oc2ccc(C)cc2NC1=O` (stereo unspecified), the re-replication activation is reported as inconclusive: 19.6% [activator].
With `Fc1ccc(OCc2nc3ccccc3s2)cc1` the Potency was inconclusive: 29.1 µM [activator, single point].
In the case of `NC(N)=Nc1nc(-c2ccccc2)c2ccccc2n1`, the “re-replication activation” value is reported as inactive: -21.5%.
For `CCOC(=O)C1C(c2ccccc2)C(C(=O)OCC)S(=O)(=O)C(CCN(CC)CC)S1(=O)=O` (stereo unspecified), the “re-replication activation” value was inactive: -3.27%.
For `COc1cc2c(cc1OC)C1(CCCC1)CNC2c1ccc([N+](=O)[O-])cc1` (stereo unspecified), the Potency was active: 23.1 µM.
With `Cc1cccc(N=C2NC(=O)/C(=C\c3cccs3)S2)c1` the Potency was inconclusive: 25.9 µM [activator, single point].
With `Cc1ccccc1Cn1nc(C)c(NC(=O)C2(C)CC2(Cl)Cl)c1C` (stereo unspecified) the Potency was active: 18.4 µM.
For `COc1ccc(NC(=S)NCCCCCC(=O)C[N+](=O)[O-])cc1`, the “re-replication activation” value was inactive: 1.68%.
For `O=C(CCC(=O)OCC(=O)c1cccc([N+](=O)[O-])c1)NC1CCCCC1`, the Potency was active: 2.59 µM.
With `COc1ccc(Nc2nc3ccccc3s2)cc1` the “re-replication activation” value was inactive: -9.54%.
For `CC1=NN(c2nc(C)cc(C)n2)C(=O)C1CCC(C)C` (stereo unspecified), the Potency was inconclusive: 29.1 µM [activator, single point].
With `CCn1c(/C=C/Nc2ccccc2)[n+](CC)c2cc(Cl)c(Cl)cc21` the Potency was inconclusive: 0.146 µM [activator, full curve, poor fit].
With `O=C(Nc1ccc(-n2nncc2-c2ccco2)cc1)c1cc2ccccc2oc1=O` the “re-replication activation” value was inactive: 15.7%.
For `COc1ccc(C2=NNC(=Nc3cc(S(=O)(=O)N(C)C)ccc3C)SC2)c(OC)c1`, the “re-replication activation” value was inactive: 19.2%.
With `O=C(/C=C/c1ccccc1)NCC(=O)N/N=C\c1cccnc1` the Potency was inconclusive: 11.6 µM [activator, single point].
In the case of `NC(=O)c1nsc(C(=O)N(Cc2cccnc2)C(C(=O)NC2CCCCC2)c2ccc(F)cc2)c1N` (stereo unspecified), the Potency is reported as inconclusive: 29.1 µM [activator, single point].
In the case of `COc1ccc(-c2cn(-c3ccccc3)nc2C(=O)O)cc1OC`, the “re-replication activation” value is reported as inactive: 5.06%.
In the case of `Cc1nnc(NC(=O)CSc2nc(C(C)C)nc3ccccc23)s1`, the Potency is reported as inconclusive: 5.17 µM [activator, full curve, poor fit].
In the case of `Cc1cc(Cl)c(S(=O)(=O)Nc2ccc(S(=O)(=O)N3CCOCC3)cc2)cc1OCC(N)=O`, the “re-replication activation” value is reported as inactive: -68.4%.
With `Cc1onc(-c2ccccc2)c1C(=O)Nc1ccc(C(=O)N2CCCCC2)cc1` the Potency was inconclusive: 6.51 µM [activator, single point].
